# Reference: the supplement of paper PMC12067093, “Discovery and optimisation of a covalent ligand for TRIM25 and its application to targeted protein ubiquitination” (Chemical Science, 2025)
# By UniProt entry, the sequences of proteins in these tests, tags left out. Where a name states a change or a piece, a line headed by the entry shows the natural chain unless it says otherwise.
# UniProt Q9UIS9: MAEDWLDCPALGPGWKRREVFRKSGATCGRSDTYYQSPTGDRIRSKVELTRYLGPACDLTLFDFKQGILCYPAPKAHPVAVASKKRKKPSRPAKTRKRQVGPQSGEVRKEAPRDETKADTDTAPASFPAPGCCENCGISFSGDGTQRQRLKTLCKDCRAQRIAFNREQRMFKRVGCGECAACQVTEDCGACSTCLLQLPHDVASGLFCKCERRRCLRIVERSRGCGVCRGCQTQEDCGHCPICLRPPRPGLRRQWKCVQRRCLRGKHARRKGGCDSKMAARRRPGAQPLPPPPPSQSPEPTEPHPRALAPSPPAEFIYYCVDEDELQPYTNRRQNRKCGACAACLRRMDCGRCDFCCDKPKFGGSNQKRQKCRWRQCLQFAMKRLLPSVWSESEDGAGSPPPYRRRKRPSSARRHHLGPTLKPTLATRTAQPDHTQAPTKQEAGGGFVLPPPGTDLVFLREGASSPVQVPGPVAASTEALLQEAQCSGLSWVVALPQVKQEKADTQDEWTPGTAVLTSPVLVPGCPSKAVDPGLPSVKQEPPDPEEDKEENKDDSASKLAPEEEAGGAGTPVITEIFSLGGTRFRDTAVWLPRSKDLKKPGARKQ
# UniProt O94822: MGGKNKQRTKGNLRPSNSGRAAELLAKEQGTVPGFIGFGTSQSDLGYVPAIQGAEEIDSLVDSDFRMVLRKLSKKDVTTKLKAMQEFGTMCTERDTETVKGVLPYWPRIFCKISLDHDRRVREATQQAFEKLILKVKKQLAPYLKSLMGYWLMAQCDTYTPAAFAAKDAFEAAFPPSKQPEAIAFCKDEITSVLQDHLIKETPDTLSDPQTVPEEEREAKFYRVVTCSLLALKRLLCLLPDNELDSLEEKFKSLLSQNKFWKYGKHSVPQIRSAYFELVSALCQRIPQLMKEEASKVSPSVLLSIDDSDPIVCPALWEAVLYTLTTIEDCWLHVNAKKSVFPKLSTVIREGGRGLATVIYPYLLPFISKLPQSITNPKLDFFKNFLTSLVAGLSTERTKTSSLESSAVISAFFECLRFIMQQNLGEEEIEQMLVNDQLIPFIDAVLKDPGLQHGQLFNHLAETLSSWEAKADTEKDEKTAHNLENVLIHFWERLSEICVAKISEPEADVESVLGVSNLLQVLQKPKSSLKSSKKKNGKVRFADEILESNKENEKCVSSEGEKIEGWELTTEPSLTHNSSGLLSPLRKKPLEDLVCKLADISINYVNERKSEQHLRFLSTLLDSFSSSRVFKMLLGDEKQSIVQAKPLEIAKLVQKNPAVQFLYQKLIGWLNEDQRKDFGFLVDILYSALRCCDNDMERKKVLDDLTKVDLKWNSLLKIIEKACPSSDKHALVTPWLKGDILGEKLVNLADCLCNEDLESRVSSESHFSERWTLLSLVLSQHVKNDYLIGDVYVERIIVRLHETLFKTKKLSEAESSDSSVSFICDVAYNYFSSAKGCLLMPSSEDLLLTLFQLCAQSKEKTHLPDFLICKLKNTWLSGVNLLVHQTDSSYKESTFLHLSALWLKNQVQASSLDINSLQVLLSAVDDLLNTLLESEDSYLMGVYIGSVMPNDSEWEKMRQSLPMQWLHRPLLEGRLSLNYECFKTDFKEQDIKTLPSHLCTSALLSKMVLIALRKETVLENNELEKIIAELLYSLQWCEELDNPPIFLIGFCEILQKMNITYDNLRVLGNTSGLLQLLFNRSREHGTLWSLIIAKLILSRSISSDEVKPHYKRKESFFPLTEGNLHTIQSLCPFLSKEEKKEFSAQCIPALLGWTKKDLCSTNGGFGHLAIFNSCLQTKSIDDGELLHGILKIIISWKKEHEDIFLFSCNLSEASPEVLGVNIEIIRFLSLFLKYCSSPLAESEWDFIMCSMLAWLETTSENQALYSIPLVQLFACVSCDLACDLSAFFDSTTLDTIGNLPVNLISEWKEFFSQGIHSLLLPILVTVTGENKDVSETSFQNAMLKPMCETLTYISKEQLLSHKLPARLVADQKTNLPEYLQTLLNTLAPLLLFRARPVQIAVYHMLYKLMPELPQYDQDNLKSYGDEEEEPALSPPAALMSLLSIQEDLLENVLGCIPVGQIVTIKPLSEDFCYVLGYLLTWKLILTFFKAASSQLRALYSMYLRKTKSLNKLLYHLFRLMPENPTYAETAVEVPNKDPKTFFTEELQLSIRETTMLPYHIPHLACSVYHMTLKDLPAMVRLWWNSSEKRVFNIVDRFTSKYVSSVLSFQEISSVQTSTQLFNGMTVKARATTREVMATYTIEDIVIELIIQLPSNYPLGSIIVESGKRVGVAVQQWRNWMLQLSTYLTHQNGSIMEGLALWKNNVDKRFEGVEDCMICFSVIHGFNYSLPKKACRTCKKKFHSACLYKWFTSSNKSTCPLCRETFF
# UniProt Q99698: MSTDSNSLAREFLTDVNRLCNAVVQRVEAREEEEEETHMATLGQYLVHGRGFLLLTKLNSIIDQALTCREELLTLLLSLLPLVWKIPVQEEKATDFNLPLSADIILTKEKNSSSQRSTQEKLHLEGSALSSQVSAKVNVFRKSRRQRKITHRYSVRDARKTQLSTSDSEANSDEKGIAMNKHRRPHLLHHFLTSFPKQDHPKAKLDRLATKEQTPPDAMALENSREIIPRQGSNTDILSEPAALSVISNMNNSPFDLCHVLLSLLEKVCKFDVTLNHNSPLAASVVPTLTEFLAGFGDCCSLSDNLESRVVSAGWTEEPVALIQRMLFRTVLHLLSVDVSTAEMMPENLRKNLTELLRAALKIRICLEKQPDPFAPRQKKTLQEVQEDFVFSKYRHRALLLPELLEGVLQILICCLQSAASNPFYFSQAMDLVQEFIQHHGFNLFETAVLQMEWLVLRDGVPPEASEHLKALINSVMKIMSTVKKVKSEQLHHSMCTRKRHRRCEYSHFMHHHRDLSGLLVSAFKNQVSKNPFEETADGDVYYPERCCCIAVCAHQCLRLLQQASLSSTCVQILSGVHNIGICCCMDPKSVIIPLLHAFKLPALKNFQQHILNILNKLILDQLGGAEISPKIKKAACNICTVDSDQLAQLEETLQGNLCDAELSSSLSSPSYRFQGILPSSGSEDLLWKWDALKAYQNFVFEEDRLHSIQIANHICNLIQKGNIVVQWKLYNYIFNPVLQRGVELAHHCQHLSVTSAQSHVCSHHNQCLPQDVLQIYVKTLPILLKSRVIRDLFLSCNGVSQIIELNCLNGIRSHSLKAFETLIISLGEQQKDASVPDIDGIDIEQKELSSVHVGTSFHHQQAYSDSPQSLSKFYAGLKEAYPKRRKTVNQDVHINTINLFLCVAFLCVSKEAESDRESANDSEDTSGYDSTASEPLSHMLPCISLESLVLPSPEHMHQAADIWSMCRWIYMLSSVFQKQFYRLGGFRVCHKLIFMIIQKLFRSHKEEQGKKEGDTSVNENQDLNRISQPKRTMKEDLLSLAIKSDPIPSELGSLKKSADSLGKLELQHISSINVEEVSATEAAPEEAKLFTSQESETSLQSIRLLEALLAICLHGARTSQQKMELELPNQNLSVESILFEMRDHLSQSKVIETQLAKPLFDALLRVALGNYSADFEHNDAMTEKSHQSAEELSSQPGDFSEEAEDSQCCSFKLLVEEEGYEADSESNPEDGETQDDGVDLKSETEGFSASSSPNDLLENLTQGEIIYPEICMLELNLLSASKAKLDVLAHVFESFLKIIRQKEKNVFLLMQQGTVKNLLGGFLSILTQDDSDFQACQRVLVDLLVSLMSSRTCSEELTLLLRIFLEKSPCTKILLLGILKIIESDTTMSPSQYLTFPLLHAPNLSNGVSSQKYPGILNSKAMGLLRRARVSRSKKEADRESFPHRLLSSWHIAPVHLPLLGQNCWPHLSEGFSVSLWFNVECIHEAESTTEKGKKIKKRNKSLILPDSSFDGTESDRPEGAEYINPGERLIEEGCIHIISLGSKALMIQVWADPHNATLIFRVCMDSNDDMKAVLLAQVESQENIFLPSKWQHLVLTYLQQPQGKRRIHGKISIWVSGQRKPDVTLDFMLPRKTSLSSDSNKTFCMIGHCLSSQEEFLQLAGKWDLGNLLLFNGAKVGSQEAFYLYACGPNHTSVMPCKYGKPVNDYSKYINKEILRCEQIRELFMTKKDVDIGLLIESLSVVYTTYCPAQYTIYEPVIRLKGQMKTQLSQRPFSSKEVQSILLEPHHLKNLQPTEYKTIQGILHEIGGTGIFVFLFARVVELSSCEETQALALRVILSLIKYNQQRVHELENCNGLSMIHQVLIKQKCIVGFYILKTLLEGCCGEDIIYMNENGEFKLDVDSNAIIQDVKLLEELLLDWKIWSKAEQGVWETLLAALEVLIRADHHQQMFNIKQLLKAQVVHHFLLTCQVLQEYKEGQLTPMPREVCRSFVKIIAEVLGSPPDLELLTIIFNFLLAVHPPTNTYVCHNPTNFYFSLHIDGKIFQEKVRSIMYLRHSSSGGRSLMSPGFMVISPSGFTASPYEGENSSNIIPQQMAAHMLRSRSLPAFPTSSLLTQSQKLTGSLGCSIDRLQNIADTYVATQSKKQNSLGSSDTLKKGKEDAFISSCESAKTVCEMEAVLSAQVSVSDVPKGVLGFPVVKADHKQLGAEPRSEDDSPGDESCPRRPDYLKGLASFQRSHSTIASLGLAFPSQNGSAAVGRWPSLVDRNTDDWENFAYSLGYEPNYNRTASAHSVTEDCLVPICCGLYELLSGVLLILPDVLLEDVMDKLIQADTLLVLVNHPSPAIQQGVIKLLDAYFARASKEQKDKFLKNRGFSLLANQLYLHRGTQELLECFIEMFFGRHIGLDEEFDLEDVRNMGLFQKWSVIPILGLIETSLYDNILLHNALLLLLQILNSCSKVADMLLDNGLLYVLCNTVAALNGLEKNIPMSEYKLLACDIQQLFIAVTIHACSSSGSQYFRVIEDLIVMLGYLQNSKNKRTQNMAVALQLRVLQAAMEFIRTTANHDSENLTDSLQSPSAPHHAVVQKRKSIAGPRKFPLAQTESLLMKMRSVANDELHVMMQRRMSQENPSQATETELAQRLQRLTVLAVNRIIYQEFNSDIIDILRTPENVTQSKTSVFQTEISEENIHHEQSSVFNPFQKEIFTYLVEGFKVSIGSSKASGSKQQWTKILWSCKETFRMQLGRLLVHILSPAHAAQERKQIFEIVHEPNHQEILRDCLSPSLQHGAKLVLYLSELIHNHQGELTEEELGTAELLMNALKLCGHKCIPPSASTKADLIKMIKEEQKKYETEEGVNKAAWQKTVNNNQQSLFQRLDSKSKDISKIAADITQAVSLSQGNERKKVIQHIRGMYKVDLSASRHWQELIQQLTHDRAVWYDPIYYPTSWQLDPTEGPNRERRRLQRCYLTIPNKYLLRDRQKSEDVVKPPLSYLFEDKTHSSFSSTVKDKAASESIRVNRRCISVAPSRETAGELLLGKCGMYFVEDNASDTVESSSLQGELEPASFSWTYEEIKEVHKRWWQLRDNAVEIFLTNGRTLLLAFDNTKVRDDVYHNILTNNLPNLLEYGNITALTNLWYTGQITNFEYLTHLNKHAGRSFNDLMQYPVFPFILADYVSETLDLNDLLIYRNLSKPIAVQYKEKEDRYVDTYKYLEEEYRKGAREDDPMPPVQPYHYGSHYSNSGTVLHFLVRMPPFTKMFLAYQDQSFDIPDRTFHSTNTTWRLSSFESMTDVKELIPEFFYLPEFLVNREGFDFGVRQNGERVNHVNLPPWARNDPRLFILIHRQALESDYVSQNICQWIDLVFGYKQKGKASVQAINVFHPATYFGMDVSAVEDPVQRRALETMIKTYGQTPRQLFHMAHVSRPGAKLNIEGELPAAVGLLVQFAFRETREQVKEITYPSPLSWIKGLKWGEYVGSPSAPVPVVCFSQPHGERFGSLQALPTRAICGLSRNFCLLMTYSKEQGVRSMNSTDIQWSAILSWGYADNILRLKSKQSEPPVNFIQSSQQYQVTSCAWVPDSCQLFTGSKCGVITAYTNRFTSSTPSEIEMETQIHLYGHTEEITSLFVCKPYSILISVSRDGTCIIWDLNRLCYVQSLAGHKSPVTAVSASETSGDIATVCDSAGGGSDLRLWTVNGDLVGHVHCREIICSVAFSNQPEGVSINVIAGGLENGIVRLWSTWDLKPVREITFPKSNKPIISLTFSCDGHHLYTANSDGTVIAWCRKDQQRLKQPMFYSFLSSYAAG
# UniProt P28482, whole entry, looked up: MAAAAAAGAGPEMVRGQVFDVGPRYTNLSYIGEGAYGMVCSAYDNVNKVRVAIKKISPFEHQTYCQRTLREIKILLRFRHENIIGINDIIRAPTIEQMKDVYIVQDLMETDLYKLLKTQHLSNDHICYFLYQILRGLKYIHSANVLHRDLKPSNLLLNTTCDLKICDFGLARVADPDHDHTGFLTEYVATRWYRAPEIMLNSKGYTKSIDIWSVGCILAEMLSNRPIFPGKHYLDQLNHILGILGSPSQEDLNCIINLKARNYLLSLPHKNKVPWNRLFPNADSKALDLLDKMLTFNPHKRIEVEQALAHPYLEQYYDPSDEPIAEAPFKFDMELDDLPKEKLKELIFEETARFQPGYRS
# Some of the results follow.
# Compound: CC1Cc2ccccc2N1C(=O)C1CCCN(C1)C(=O)CCl (mixture of isomers) [TRIM25 ligand 11 (diastereomer mixture)]
# Test: probe-labelled cysteine peptide fold change vs DMSO (competition) (log2 fold change); higher = less target engagement (more negative = stronger competition)
# Settings: THP-1, incubation time: 4 h
# 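Also: competitive chemoproteomic profiling in live THP-1 cells with an iodoacetamide desthiobiotin (IA-DTB) probe, comparing probe-labelled peptide intensities in compound-treated cells against DMSO-treated controls.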
Target,probe-labelled cysteine peptide fold change (10 µM),probe-labelled cysteine peptide fold change (50 µM)
MBD1_Q9UIS9_28_SGATCGR (UniProt Q9UIS9),-0.0966,-0.103
LTN1_O94822_237_LLCLLPDNELDSLEEK (UniProt O94822),0.166,0.34
LYST_Q99698_1646+1651_TFCMIGHCLSSQEEFLQLAGK (UniProt Q99698),-0.00283,-0.0572
MAP4_P27816-4_243_LSFCEDQNAQDR (UniProt P27816),0.0716,0.0752
LY75_O60449-2_1697_NQCTDHGADMISIHNEEENAFILDTLK (UniProt O60449),0.27,0.104
MAPK1_P28482_127_TQHLSNDHICYFLYQILR (UniProt P28482),0.115,0.214
MBD2_Q9UBB5_359_NPAVWLNTSQPLCK (UniProt Q9UBB5),-0.0192,-0.0298
MAK16_Q9BXY0_17_QFCSFK (UniProt Q9BXY0),-0.141,0.0665
MACF1_Q9UPN3_3619_QQNTCHQQLEDLCSWVGQAER (UniProt Q9UPN3),-0.474,0.118
MANBA_O00462_769_ESCVVSFYLSADHELLSPTNYHFLSSPK (UniProt O00462),0.329,0.107
MAN2C1_Q9NTJ4_584_LLLLNQFHDVVTGSCIQMVAEEAMCHYEDIR (UniProt Q9NTJ4),0.262,0.174
MACF1_Q9UPN3_3368_QLCLEHDEK (UniProt Q9UPN3),0.0306,0.202
LYAR_Q9NX58_25_HVSVCR (UniProt Q9NX58),0.426,-0.0519
LTN1_O94822_595_KKPLEDLVCK (UniProt O94822),0.016,0.0662
MAPK3_P27361_82_ISPFEHQTYCQR (UniProt P27361),0.151,0.0648
MACF1_Q9UPN3_5116_VNSGCVMMENK (UniProt Q9UPN3),0.0171,0.222
MACF1_Q9UPN3_1522_AYHDLCDGSANQLQQLQSQLAHQTEQK (UniProt Q9UPN3),0.0986,-0.17
MAPK14_Q16539_162_DLKPSNLAVNEDCELK (UniProt Q16539),0.12,0.0327

Target,probe-labelled cysteine peptide fold change (10 µM),probe-labelled cysteine peptide fold change (50 µM)
MAP2K6_P52564_294_FSAEFVDFTSQCLK (UniProt P52564),0.103,0.203
MAP4K1_Q92918_335_SSSLGIPDADCCR (UniProt Q92918),-0.191,-0.167
MAT2B_Q9NZL9_263_YEMACAIADAFNLPSSHLRPITDSPVLGAQRPR (UniProt Q9NZL9),-0.239,-0.039
MACF1_Q9UPN3_3109_EIACGAQSEPFPCMTPRPEGLHYQESDGK (UniProt Q9UPN3),-0.00248,-0.346
LYST_Q99698_504_CEYSHFMHHHR (UniProt Q99698),0.17,-0.000316
MAD1L1_Q9Y6D9_134_QCQQNLDAASK (UniProt Q9Y6D9),-0.11,-0.317
MBNL2_Q5VZF2_19_WLTLEVCR (UniProt Q5VZF2),-0.126,-0.0451
MARS_P56192_389_CEHCAR (UniProt P56192),0.0927,0.0581
MAGT1_Q9H0U3_90_QCVVCK (UniProt Q9H0U3),0.0352,-0.0544
LYZ_P61626_48_GISLANWMCLAK (UniProt P61626),-0.11,-0.144
MAEA_Q7L5Y9_333_LAQPLPMAHCANSR (UniProt Q7L5Y9),-0.0602,-0.0508
MBD4_O95243_549_IFCVNEWK (UniProt O95243),0.0136,0.105
MAP3K4_Q9Y6R4_596_CSAVSWEELK (UniProt Q9Y6R4),0.147,0.286
M6PR_P20645_132_GGDEYDNHCGK (UniProt P20645),-0.0971,-0.257
LTN1_O94822_91_AMQEFGTMCTER (UniProt O94822),-0.147,-0.3
LTA4H_P09960_8_PEIVDTCSLASPASVCR (UniProt P09960),-0.161,-0.076
MAP3K8_P41279_398_CQSLDSALLER (UniProt P41279),-0.18,-0.224

# Record cards, from the list above. Values in the order: probe-labelled cysteine peptide fold change (10 µM) | probe-labelled cysteine peptide fold change (50 µM)
# MAPK1_P28482_127_TQHLSNDHICYFLYQILR (UniProt P28482) is entered as 0.115 | 0.214
# MACF1_Q9UPN3_3619_QQNTCHQQLEDLCSWVGQAER (UniProt Q9UPN3) is entered as -0.474 | 0.118
# MBD1_Q9UIS9_28_SGATCGR (UniProt Q9UIS9) is entered as -0.0966 | -0.103
